Results are given in words; binding and its absence hold for the method and conditions named. Binding seen in cells or lysates may run through a third protein. Some entries that bind do so weakly or less than the wild type.
T1: endogenous IRGM (human (endogenous in THP-1)) (UniProt A1A4Y4)
T1 sequence: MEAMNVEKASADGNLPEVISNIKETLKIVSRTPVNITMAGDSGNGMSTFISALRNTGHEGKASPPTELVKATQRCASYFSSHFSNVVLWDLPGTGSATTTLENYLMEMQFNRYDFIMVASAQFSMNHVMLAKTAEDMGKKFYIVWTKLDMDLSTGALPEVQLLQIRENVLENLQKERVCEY

B1: endogenous RIG-I (protein, UniProt O95786 1-925)
chain: MTTEQRRSLQAFQDYIRKTLDPTYILSYMAPWFREEEVQYIQAEKNNKGPMEAATLFLKFLLELQEEGWFRGFLDALDHAGYSGLYEAIESWDFKKIEKLEEYRLLLKRLQPEFKTRIIPTDIISDLSECLINQECEEILQICSTKGMMAGAEKLVECLLRSDKENWPKTLKLALEKERNKFSELWIVEKGIKDVETEDLEDKMETSDIQIFYQEDPECQNLSENSCPPSEVSDTNLYSPFKPRNYQLELALPAMKGKNTIICAPTGCGKTFVSLLICEHHLKKFPQGQKGKVVFFANQIPVYEQQKSVFSKYFERHGYRVTGISGATAENVPVEQIVENNDIIILTPQILVNNLKKGTIPSLSIFTLMIFDECHNTSKQHPYNMIMFNYLDQKLGGSSGPLPQVIGLTASVGVGDAKNTDEALDYICKLCASLDASVIATVKHNLEELEQVVYKPQKFFRKVESRISDKFKYIIAQLMRDTESLAKRICKDLENLSQIQNREFGTQKYEQWIVTVQKACMVFQMPDKDEESRICKALFLYTSHLRKYNDALIISEHARMKDALDYLKDFFSNVRAAGFDEIEQDLTQRFEEKLQELESVSRDPSNENPKLEDLCFILQEEYHLNPETITILFVKTRALVDALKNWIEGNPKLSFLKPGILTGRGKTNQNTGMTLPAQKCILDAFKASGDHNILIATSVADEGIDIAQCNLVILYEYVGNVIKMIQTRGRGRARGSKCFLLTSNAGVIEKEQINMYKEKMMNDSILRLQTWDEAVFREKILHIQTHEKFIRDSQEKPKPVPDKENKKLLCRKCKALACYTADVRVIEECHYTVLGDAFKECFVSRPHPKPKQFSSFEKRAKIFCARQNCSHDWGIHVKYKTFEIPVIKIESFVVEDIATGVQTLYSKWKDFHFEKIPFDPAEMSK
B2: endogenous MDA5 (protein, UniProt Q9BYX4 1-1025)
chain: MSNGYSTDENFRYLISCFRARVKMYIQVEPVLDYLTFLPAEVKEQIQRTVATSGNMQAVELLLSTLEKGVWHLGWTREFVEALRRTGSPLAARYMNPELTDLPSPSFENAHDEYLQLLNLLQPTLVDKLLVRDVLDKCMEEELLTIEDRNRIAAAENNGNESGVRELLKRIVQKENWFSAFLNVLRQTGNNELVQELTGSDCSESNAEIENLSQVDGPQVEEQLLSTTVQPNLEKEVWGMENNSSESSFADSSVVSESDTSLAEGSVSCLDESLGHNSNMGSDSGTMGSDSDEENVAARASPEPELQLRPYQMEVAQPALEGKNIIICLPTGSGKTRVAVYIAKDHLDKKKKASEPGKVIVLVNKVLLVEQLFRKEFQPFLKKWYRVIGLSGDTQLKISFPEVVKSCDIIISTAQILENSLLNLENGEDAGVQLSDFSLIIIDECHHTNKEAVYNNIMRHYLMQKLKNNRLKKENKPVIPLPQILGLTASPGVGGATKQAKAEEHILKLCANLDAFTIKTVKENLDQLKNQIQEPCKKFAIADATREDPFKEKLLEIMTRIQTYCQMSPMSDFGTQPYEQWAIQMEKKAAKEGNRKERVCAEHLRKYNEALQINDTIRMIDAYTHLETFYNEEKDKKFAVIEDDSDEGGDDEYCDGDEDEDDLKKPLKLDETDRFLMTLFFENNKMLKRLAENPEYENEKLTKLRNTIMEQYTRTEESARGIIFTKTRQSAYALSQWITENEKFAEVGVKAHHLIGAGHSSEFKPMTQNEQKEVISKFRTGKINLLIATTVAEEGLDIKECNIVIRYGLVTNEIAMVQARGRARADESTYVLVAHSGSGVIEHETVNDFREKMMYKAIHCVQNMKPEEYAHKILELQMQSIMEKKMKTKRNIAKHYKNNPSLITFLCKNCSVLACSGEDIHVIEKMHHVNMTPEFKELYIVRENKALQKKCADYQINGEIICKCGQAWGTMMVHKGLDLPCLKIRNFVVVFKNNSTKKQYKKWVELPITFPNLDYSECCLFSDED
B3: endogenous AIM2 (protein, UniProt O14862 1-343)
chain: MESKYKEILLLTGLDNITDEELDRFKFFLSDEFNIATGKLHTANRIQVATLMIQNAGAVSAVMKTIRIFQKLNYMLLAKRLQEEKEKVDKQYKSVTKPKPLSQAEMSPAASAAIRNDVAKQRAAPKVSPHVKPEQKQMVAQQESIREGFQKRCLPVMVLKAKKPFTFETQEGKQEMFHATVATEKEFFFVKVFNTLLKDKFIPKRIIIIARYYRHSGFLEVNSASRVLDAESDQKVNVPLNIIRKAGETPKINTLQTQPLGTIVNGLFVVQKVTEKKKNILFDLSDNTGKMEVLGVRNEDTMKCKEGDKVRLTFFTLSKNGEKLQLTSGVHSTIKVIKAKKKT

target: T1, endogenous IRGM (human (endogenous in THP-1)); assay: co-IP

| binding | Binder |
| --- | --- |
| binds | B1 |
| no binding | B2 |
| no binding | B3 |

Reference: paper doi:10.1101/815506
